Assay results as given in US6342511B1, “Phencyclidine derivatives, preparation method and pharmaceutical compositions containing same” (Societe de Conseils de Recherches et d'Applications …, priority 1977, dated 2002).

Experiments:
[1] = tested on: PCP2 sites; experiment: [3H]TCP displacement, cerebellum membranes, 2-site model, PCP2; assay type: binding, rat; conditions: relative proportion of PCP2 sites in two-site fit
Protocol: (§1) The affinity of the compounds for their potential bond site, can be evaluated by quantifying their ability to displace a specific tritiated label of a given site. The bond experiences are carried out by competition between the molecule to be tested and the appropriate radioligand on a membrane preparation rich in sites to be studied. The concentration of the derivative tested which inhibits 50% of the bond of the radioligand to the receptor is called IC50.
(§2) For the experimental conditions and membrane preparation techniques used, reference can be made to the literature (Brain Res., 378, 133-141 (1986); Eur. J. Pharm., 81, 531-542 (1982)).
(§3) For low affinity sites, the monosite treatment used led to incoherent results. The experimental data have therefore been reprocessed using non-linear regression (Marquardt-Levenberg algorithm) with Sigma Plot software (Jandel) according to a model with two noted sites of interaction PCP2 and PCP3. This processing proves to be more suitable than a monosite treatment (Student test: p<0.05) over a set of 3 to 4 experiments for each compound tested. Over all the experiments, the two site populations are found in a relative proportion to 68.0% (±1.5) for the PCP2 sites and 31.2% (±1.5) for the PCP3 sites.
(§4) For the PCP2 and PCP3 sites, the preparation originates from rat cerebella. Not having a specific label, only [^3H]TCP can be used. A more significant concentration of tritiated ligand (2.5 nM versus 1 nM in the cortex) is used to ensure that all the PCP2 and PCP3 sites are occupied.

[2] = tested on: PCP3 sites; experiment: [3H]TCP displacement, cerebellum membranes, 2-site model, PCP3; assay type: binding, rat; conditions: relative proportion of PCP3 sites in two-site fit
Protocol: as §1, §2, §3, §4

Q: CC1CCCN(C2(c3cccs3)CCSCC2)C1 (racemic) [Ex 2, (±)-N-[4-(2-thienyl)-tetrahydro-4H-thiopyran-4-yl]-3-methyl-piperidine] was tested. Which “cerebellum 2 sites PCP2 (%)” value [1] did it give?
A: 69.1%

Q: What about the “cerebellum 2 sites PCP3 (%)” value [2] of the same compound?
A: 31.6%

Q: What does the source list for CC1CCCN(C2(c3cc4ccccc4s3)CCSCC2)C1 (racemic) [Ex 5, (±)-N-[4-(2-benzothiophenyl)-tetrahydro-4H-thiopyran-4-yl]-3-methyl-piperidine]?
A: cerebellum 2 sites PCP2 (%) [1]: 66.2%; cerebellum 2 sites PCP3 (%) [2]: 32.2%

Q: For CC1CCCN(C2(c3cccs3)CCCCC2)C1 (racemic) [Ex 22 (±), N-[1-(2-thienyl)-cyclohexan-1-yl]-3-methyl piperidine], which “cerebellum 2 sites PCP2 (%)” value [1] is on record?
A: 68.5%

Q: And the “cerebellum 2 sites PCP3 (%)” value [2]?
A: 33.7%

Q: Which “cerebellum 2 sites PCP2 (%)” value [1] does the source give for CC1CSCCC1(c1cccs1)N1CCCCC1 (single isomer, unassigned) [Ex 1 (minority), N-[4-(2-thienyl)-3-methyl-tetrahydro-4H-thiopyran-4-yl] piperidine] here?
A: 62.8%

Q: And the “cerebellum 2 sites PCP3 (%)” value [2]?
A: 34.7%

Q: What does the source list for CC1CCCN(C2(c3cccs3)CCCCC2)C1 (single isomer, unassigned) [Ex 22 (+), N-[1-(2-thienyl)-cyclohexan-1-yl]-3-methyl piperidine]?
A: cerebellum 2 sites PCP2 (%) [1]: 52.5%; cerebellum 2 sites PCP3 (%) [2]: 51.0%

Q: With C[C@@H]1CCCN(C2(c3cccs3)CCSCC2)C1 [Ex 4, R-(+)-N-[4-(2-thienyl)-tetrahydro-4H-thiopyran-4-yl]-3-methyl-piperidine] as the compound, how does the “cerebellum 2 sites PCP2 (%)” value [1] read?
A: 66.3%

Q: And the “cerebellum 2 sites PCP3 (%)” value [2]?
A: 34.6%

Q: What does the source list for C[C@@H]1CCCN(C2(c3cc4ccccc4s3)CCSCC2)C1 [Ex 6, R-(+)-N-[4-(2-benzothiophenyl)-tetrahydro-4H-thiopyran-4-yl]-3-methyl-piperidine]?
A: cerebellum 2 sites PCP2 (%) [1]: 55.6%; cerebellum 2 sites PCP3 (%) [2]: 39.4%

Q: How did the “cerebellum 2 sites PCP2 (%)” value [1] turn out when C[C@H]1CCCN(C2(c3cc4ccccc4s3)CCSCC2)C1 [Ex 7, S-(−)-N-[4-(2-benzothiophenyl)-tetrahydro-4H-thiopyran-4-yl]-3-methyl-piperidine] was run?
A: 57.8%

Q: And the “cerebellum 2 sites PCP3 (%)” value [2]?
A: 40.7%

Q: Which “cerebellum 2 sites PCP2 (%)” value [1] does the source give for OCC1CCCN(C2(c3cccs3)CCCCC2)C1 (centres unmarked) [Ex 8, N-[1-(2-thienyl)-cyclohexan-1-yl]-3-hydroxymethyl-piperidine] here?
A: 69%

Q: What about the “cerebellum 2 sites PCP3 (%)” value [2] of the same compound?
A: 31%

Q: With c1coc(C2(N3CCCCC3)CCSCC2)c1 [Ex 9, N-[4-(2-furyl)-tetrahydro-4H-thiopyran-4-yl]-piperidine] as the compound, how does the “cerebellum 2 sites PCP2 (%)” value [1] read?
A: 68.3%

Q: And the “cerebellum 2 sites PCP3 (%)” value [2]?
A: 32.3%

Q: Which “cerebellum 2 sites PCP2 (%)” value [1] does the source give for c1ccc2oc(C3(N4CCCCC4)CCSCC3)cc2c1 [Ex 10, N-[4-(2-benzofuryl)-tetrahydro-4H-thiopyran-4-yl]-piperidine] here?
A: 65.0%

Q: And the “cerebellum 2 sites PCP3 (%)” value [2]?
A: 33.4%

Q: Which results are given for Cc1ccc(C2(N3CCCCC3)CCSCC2)s1 [Ex 11, N-[4-(5-methyl-thiophen-2-yl)-tetrahydro-4H-thiopyran-4-yl]-piperidine]?
A: cerebellum 2 sites PCP2 (%) [1]: 83%; cerebellum 2 sites PCP3 (%) [2]: 15.3%

Q: Which “cerebellum 2 sites PCP2 (%)” value [1] does the source give for Cc1csc(C2(N3CCCCC3)CCSCC2)c1 [Ex 12, N-[4-(4-methyl-thiophen-2-yl)-tetrahydro-4H-thiopyran-4-yl]-piperidine] here?
A: 76.4%

Q: What about the “cerebellum 2 sites PCP3 (%)” value [2] of the same compound?
A: 21.8%

Q: Which “cerebellum 2 sites PCP2 (%)” value [1] does the source give for CCNC1(c2cccs2)CCCCC1 [Ex 17, N-ethyl-1-(2-thienyl)-cyclohexylamine] here?
A: 56.6%

Q: And the “cerebellum 2 sites PCP3 (%)” value [2]?
A: 44.6%

Q: For c1coc(C2(N3CCCCC3)CCCCC2)c1 [Ex 18, N-[1-(2-furyl)-cyclohexan-1-yl] piperidine], which “cerebellum 2 sites PCP2 (%)” value [1] is on record?
A: 66.3%

Q: And the “cerebellum 2 sites PCP3 (%)” value [2]?
A: 30.7%

Q: With c1csc(C2(N3CCCCC3)CCSCC2)c1 [Ex 19, N-[4-(2-thienyl)-tetrahydro-4H-thiopyran-4-yl] piperidine] as the compound, how does the “cerebellum 2 sites PCP2 (%)” value [1] read?
A: 75.2%

Q: What about the “cerebellum 2 sites PCP3 (%)” value [2] of the same compound?
A: 25.2%

Q: Which “cerebellum 2 sites PCP2 (%)” value [1] does the source give for c1csc(C2(N3CCCCC3)CCOCC2)c1 [Ex 20, N-[4-(2-thienyl)-tetrahydro-4H-pyran-4-yl] piperidine] here?
A: 80.3%

Q: And the “cerebellum 2 sites PCP3 (%)” value [2]?
A: 15.5%

Q: c1csc(C2(N3CCCCC3)CCCSC2)c1 (centres unmarked) [Ex 21, N-[3-(2-thienyl)-tetrahydro-4H-thiopyran-3-yl] piperidine] was tested. Which “cerebellum 2 sites PCP2 (%)” value [1] did it give?
A: 77.8%

Q: What about the “cerebellum 2 sites PCP3 (%)” value [2] of the same compound?
A: 23.4%

Q: Which “cerebellum 2 sites PCP2 (%)” value [1] does the source give for c1csc(C2(N3CCCCC3)CCCCC2)c1 [TCP, N-(1-(2-thienyl)cyclohexyl)piperidine, reference compound] here?
A: 72.6%

Q: And the “cerebellum 2 sites PCP3 (%)” value [2]?
A: 29.8%
